Tested on: Chlamydia trachomatis
Experiment: C. trachomatis infection of HeLa cells (chlamydial inclusions, immunocytochemistry)
Assay type: cell-based
Protocol: Chlamydia trachomatis (C. trachomatis) propagation and treatment were carried out as follows. C. trachomatis was propagated in HeLa cells. The titer of C. trachomatis was determined in cyclohexamide-treated HeLa cells, and concentrations used were expressed as inclusion forming units (IFU) per mL.
Assessment of the level of infection was determined as follows. HeLa cells were seeded on glass coverslips in 24-well plates at 3×10^4 cells/well and inoculated with C. trachomatis and then treated with antibiotic (or other compounds of interest). After 48 hours, the infected cells were fixed with 100% methanol and then incubated with anti-Chlamydia monoclonal antibody. Inclusion bodies were visualized by staining with FITC-conjugated secondary antibody and DAPI as counterstaining. The samples were examined by a fluorescence microscopy. Number of inclusions was calculated per 100 cells.
Assessment of antichlamydial activity of Korormicin (Scheme shown in FIG. 1) and PEG-2 (Scheme shown in FIG. 2) were performed as follows. Cells were infected with C. trachomatis and treated with different concentrations of antibiotic of choice. After 48 h of C. trachomatis was collected (P1) and used to infect fresh cells. Subsequent collections of C. trachomatis were used to obtain P2, P3, P4 and P5 stocks of C. trachomatis. […]

For `CCCCCCCC[C@H]1O[C@H]1C/C=C/C=C\[C@H](O)CC(=O)NC1=C[C@](C)(CC)OC1=O` [Korormicin, (3R,4Z,6E)-N-[(5S)-5-Ethyl-5-methyl-2-oxo-2,5-dihydro-3-furanyl]-3-hydroxy-8-[(2S,3R)-3-octyl-2-oxiranyl]-4,6-octadienamide], the “MIC50 in excess of effective inhibitory concentration measured for isolated Na+-NQR” value was “approximately six orders of magnitude”.
